Record: PubChem BioAssay AID504804 (Drosophila RNAi Screening Center, 2011)
Screen: 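Fly genes whose loss lessens doxorubicin-driven cell death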 (primary screen). Cell system: Drosophila Kc cells. Reagents: long dsRNA against Drosophila genes, 0.5 µg dsRNA per well. Time to read-out: 96 h (48 h knock-down, then 48 h drug). Conditions: doxorubicin 5 µg/ml for 48 h, added 48 h after dsRNA. Detection: 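Viability measured as cellular ATP by luminescence after 48 h knock-down then 48 h doxorubicin at 5 µg/ml; unnormalised plate counts for each replicate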. Scale: raw ATP luminescence: higher = more viable cells, protection from doxorubicin. Active means: 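z-score of 2 or more over plate mean in both duplicates, retained only when retests and separate dsRNAs confirm the protection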.
The deposit covers about 19,000 reagents; this is an unselected part of those with a known target gene and a result. Of all reagents, 47 (0.25%) got an active call. 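Signals are raw, not normalised; exact z-scores behind calls not deposited; actives needed confirmation, so some wells reaching 2 SD are inactive.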 Reagents against one gene are numbered here.

gene	reagent	raw ATP luminescence, replicate 1	raw ATP luminescence, replicate 2	outcome
CCT4	1	58803	73100	inactive
CG6479	1	32157	20057	inactive
Wdr37	1	43050	44507	inactive
Alg13	1	68140	58430	inactive
m	1	3.08e5	2.16e5	inactive
CG34384	1	58297	81803	inactive
CG34384	2	66937	72533	inactive
CG34384	3	54083	62930	inactive
CG34384	4	46093	67977	inactive
ppk15	1	52030	56710	inactive
CG15202	1	3.55e5	3.19e5	inactive

Part of the list above, reformatted.
{"gene":"CCT4","reagent":1,"raw ATP luminescence, replicate 1":58803,"raw ATP luminescence, replicate 2":73100,"outcome":"inactive"}
{"gene":"CG6479","reagent":1,"raw ATP luminescence, replicate 1":32157,"raw ATP luminescence, replicate 2":20057,"outcome":"inactive"}
{"gene":"Wdr37","reagent":1,"raw ATP luminescence, replicate 1":43050,"raw ATP luminescence, replicate 2":44507,"outcome":"inactive"}

The results go on.
gene	reagent	raw ATP luminescence, replicate 1	raw ATP luminescence, replicate 2	outcome
Obp83g	1	67990	63823	inactive
CG13643	1	45270	52550	inactive
CG13643	2	46670	48800	inactive
CG14014	1	34890	31453	inactive
Patr-1	1	31540	31960	inactive
PGRP-SB1	1	40153	43180	inactive
2mit	1	63060	60080	inactive
2mit	2	62580	64050	inactive
Lsm12a	1	4.73e5	3.87e5	inactive
CG33136	1	1.80e5	1.62e5	inactive
Pino	1	1.18e5	89670	inactive
Pino	2	1.17e5	48850	inactive
wit	1	53713	44513	inactive
Tektin-A	1	82697	67433	inactive
CG3769	1	45203	81457	inactive
cag	1	40853	79027	inactive
awd	1	61900	60970	inactive
dmrt11E	1	3.71e5	3.27e5	inactive
CG14325	1	23190	26880	inactive
Mrp4	1	62270	58840	inactive
CG5377	1	78390	63410	inactive
Tmtc4	1	72870	64930	inactive
CG5819	1	23987	36733	inactive
